# System: CHO cells
# Assay: Solution accelerating method, molecule delivery efficiency
# Format: cell-based, Chinese Hamster
# Settings: mean ± STDEV
structure (smiles),measurement,setting,value
CN1CCN(c2ccc3[nH]c(-c4ccc5[nH]c(-c6ccc(O)cc6)nc5c4)nc3c2)CC1 [Hoechst 33258],Delivery effciency (targeted cells/500 cells),solution 0.1 mg/ml,27.25 ± 7.22 targeted cells/500 cells
same,Delivery effciency (targeted cells/500 cells),solution 0.5 mg/ml,57.7 ± 25.56 targeted cells/500 cells
same,Delivery effciency (targeted cells/500 cells),solution 1 mg/ml,65.48 ± 18.81 targeted cells/500 cells

# From patent US20070173470A1, “Methods for delivering extracellular target into cells” (priority 2006, published 2007)
